Measured values as given in patent publication US5486596A (Ceskoslovenska akademie ved, priority 1989, dated 1996).
HELM strings list residues between dots; [ac] is acetyl, [am] amide, other brackets name non-standard units.

Assay: general procedure: Boc solid-phase peptide synthesis; Benzhydrylamine resin (0.56 mmol/g); Boc-amino acid active esters (OBt), 3 molar excess; 4-dimethylaminopyridine cata
Conditions: whole synthesis

Substance	crude mass (scale 0.48 mmol, TFA)	isolated mass (scale 0.48 mmol, TFA salt)	crude mass (scale 0.33 mmol, TFA)	isolated mass (scale 0.33 mmol, TFA)
PEPTIDE1{C.[Tyr(Me)].F.Q.N.C.P.[D-Har].G.[am]}$PEPTIDE1,PEPTIDE1,1:R3-6:R3$$$V2.0	353 mg	160 mg	–	–
PEPTIDE1{[Mpr].[Tyr(Me)].F.Q.N.C.P.[D-Har].G.[am]}$PEPTIDE1,PEPTIDE1,1:R3-6:R3$$$V2.0	–	–	47 mg	9 mg
